Laboratory results published in the supplement of paper PMC11150407.
About 45 (2%) of roughly 3,000 compounds showed an effect of 50% or more. Some of the results follow.

What follows are compounds tested on MOLM1 and UCSD/AML1 (averaged) (assay: cell viability relative to DMSO control (POC); higher = less growth inhibition). Settings: 1 µM; 72 h.
Procedure: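 Primary viability screen in the 3q26 EVI1-high AML cell lines MOLM1 and UCSD/AML1, compounds at 1 uM for 72 h. ATP CellTiter-Glo read-out given as percent viable over DMSO control (POC), averaged over duplicates. This mapping covers the TimTec NDL-3000 natural derivative library, whose compounds are identified by TimTec catalogue codes (ST...).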

Compared with `CC(C)OC(=O)C1=C(N)Oc2c(oc(CO)cc2=O)C1c1ccc(Cl)cc1Cl` (stereo not drawn), `CC(C)OC(=O)C1=C(N)Oc2c(oc(CO)cc2=O)C1c1c(Cl)cccc1Cl` (stereo not drawn) is higher in cell viability: 95.8% for the first, 104% for the second.

Compared with `COc1ccc(Br)cc1-c1nc(CSc2nc3c(=O)[nH]c(C)nc3n2C)c(C)o1`, `Cn1c(SCc2ccccc2Cl)nc2c(=O)[nH]cnc21` is lower in cell viability: 103% for the first, 86% for the second.

Going from `CCCCOc1ccc(/C=C2\Oc3ccc(C(=O)OC)cc3C2=O)cc1OCC` to `COc1ccc(C(=O)NCCOc2cc(C)cc(C)c2)cc1OC`, the cell viability falls from 102% to 93.2%.

Compared with `Cc1ccc(Nc2c([N+](=O)[O-])c(=O)n(C)c3ccccc23)cc1`, `Cc1ccc(C(=O)NCCc2c(C)[nH]c3ccccc23)cc1` is lower in cell viability: 103% for the first, 94.8% for the second.

First: COc1ccc(/C=C/C(=O)c2ccccc2O)cc1COc1cc(C)c(Cl)cc1C(C)C
Second: CCC(=O)Oc1ccc(/C=C/c2ccccc2)cc1OC
The cell viability of the first is higher: 102% for the first, 91% for the second.

First: COCCOC(=O)c1c(C)n(-c2ccc(Br)cc2)c2ccc(O)cc12
Second: COc1cc(O)c(C(=O)Cc2ccc(Br)cc2)c(OC)c1
The cell viability of the first is lower: 93% for the first, 112% for the second.

Going from `Cc1ccc(-n2c(SCC(=O)Nc3cccc(Cl)c3C)nc3c(=O)[nH]cnc32)cc1` to `Cc1ccc(-n2c(SCc3ccccc3Cl)nc3c(=O)[nH]cnc32)cc1`, the cell viability rises from 105% to 107%.

Going from `O=C(CSc1nc2ccccc2c(=O)[nH]1)N1CCN(c2ccccc2F)CC1` to `O=C(CSc1nc2ccccc2c(=O)[nH]1)c1ccc(Cl)c(Cl)c1`, the cell viability falls from 103% to 99.1%.

First: CC(=O)C1CCC2C3CC=C4CC(O[Si](C)(C)C(C)(C)C)CCC4(C)C3CCC12C (stereo not drawn)
Second: C=C(C)C1CCC2(COC(=O)/C=C/c3ccccc3)CCC3(C)C(CCC4C5(C)CCC(O)C(C)(C)C5CCC43C)C12 (stereo not drawn)
The cell viability of the first is lower: 88.3% for the first, 97.4% for the second.

Going from `c1ccc2c(CCc3ccncc3)c[nH]c2c1` to `CCc1ccc(C(c2c[nH]c3ccccc23)c2c[nH]c3ccccc23)cc1`, the cell viability falls from 98.4% to 97.7%.

Going from `CCCCC(NC(=O)CSc1nnc(-c2ccccc2)n1-c1ccccc1)C(=O)O` (stereo not drawn) to `O=C(O)C(Cc1ccccc1)NC(=O)C1CCCN1C(=O)OCc1ccccc1` (stereo not drawn), the cell viability falls from 102% to 94.6%.

Compared with `Cc1ccccc1N/C=C1\C(=O)C(O)=C(C(C)C)c2cc(C)c(-c3c(C)cc4c(c3O)/C(=C/Nc3ccccc3C)C(=O)C(O)=C4C(C)C)c(O)c21`, `COc1cc(OC)cc(C(=O)Nc2ccccc2C(=O)Nc2cccc(C)c2C)c1` is higher in cell viability: 85.8% for the first, 106% for the second.

First: O=C1c2ccccc2C(=O)c2c1ccc([O-])c2[O-].[Ni+2]
Second: CC(C)CC(C(=O)O)N1C(=O)c2cccc3cccc(c23)C1=O (stereo not drawn)
The cell viability of the first is higher: 98.9% for the first, 98.6% for the second.

Compared with `COc1ccccc1CNC(=O)c1cc(OC)c(OC)c(OC)c1`, `COc1ccc(NC(=O)Cc2ccc(OC)c(OC)c2)c(OC)c1` is lower in cell viability: 100% for the first, 95.8% for the second.

Compared with `O=c1[nH]c2ccc(OCc3ccccc3)cc2c(O)c1-c1ccccc1`, `CCCC/C(O)=C1\C(=O)CC(c2ccccc2)CC1=NCCc1c(C)[nH]c2ccc(OCc3ccccc3)cc12` (stereo not drawn) is higher in cell viability: 92.6% for the first, 95.6% for the second.

Compared with `CCOC(=O)/C(C#N)=C\c1ccc(C)cc1`, `COc1cc(/C=C(/C#N)C(=O)Nc2ccc(O)cc2)ccc1O` is lower in cell viability: 101% for the first, 76% for the second.

Compared with `COC(=O)CNC(=O)c1ccc(Cl)c(Cl)c1`, `O=C(O)/C=C/c1ccc(Cl)c(Cl)c1` is lower in cell viability: 105% for the first, 97.8% for the second.

First: O=C(Nc1ncnc2c1ncn2C1OC(COC(=O)c2ccc(Cl)cc2Cl)C(OC(=O)c2ccc(Cl)cc2Cl)C1OC(=O)c1ccc(Cl)cc1Cl)c1ccccc1 (stereo not drawn)
Second: COc1ccc(-c2coc3cc(OC4OC(COC(C)=O)C(OC(C)=O)C(OC(C)=O)C4OC(C)=O)ccc3c2=O)cc1 (stereo not drawn)
The cell viability of the first is lower: 74.5% for the first, 74.8% for the second.

First: CC(C)NCC(O)c1ccc(O)c(O)c1 (stereo not drawn)
Second: Cc1ccc(NCC(=O)N/N=C\c2c(C)cc(O)cc2O)cc1
The cell viability of the first is higher: 94.7% for the first, 89.8% for the second.

Compared with `CC1OC(n2cc(F)c(=O)[nH]c2=O)C(O)C1O` (stereo not drawn), `CC(=O)OC1C(=O)OC2C1OC(n1ccc(=O)[nH]c1=O)C2OC(C)=O` (stereo not drawn) is lower in cell viability: 95.6% for the first, 88.9% for the second.

First: N#CC1=C(N)Oc2cc(O)ccc2C1c1ccccc1F (stereo not drawn)
Second: Cc1[nH]nc2c1C(c1ccc(O)cc1)C(C#N)=C(N)O2 (stereo not drawn)
The cell viability of the first is lower: 13.8% for the first, 95.7% for the second.

Going from `COc1cccc(N2CCN(Cc3cc(=O)oc4cc(C)cc(C)c34)CC2)c1` to `Cc1cccc(N2CCN(Cc3cc(=O)oc4cc(C)cc(C)c34)CC2C)c1` (stereo not drawn), the cell viability rises from 91.3% to 109%.

Going from `COc1cc(C2C(C(=O)OC3CCCC3)=C(C)NC3=C2C(=O)CCC3)cc(Cl)c1O` (stereo not drawn) to `COc1cc(C2NC(=O)NC(C)=C2C(=O)OCCOc2ccccc2)cc(Cl)c1O` (stereo not drawn), the cell viability falls from 106% to 105%.

Compared with `COc1cc(OC)cc(C(=O)NCc2ccco2)c1`, `COc1cc(OC)cc(C(=O)Nc2cccc(Cl)c2)c1` is higher in cell viability: 96.2% for the first, 101% for the second.

First: Cc1ccc2c(CN3CCN(Cc4ccccc4C#N)CC3)cc(=O)oc2c1
Second: Cc1cc(=O)n(C)c(=O)n1Cc1ccccc1C#N
The cell viability of the first is lower: 91% for the first, 107% for the second.

Compared with `Cn1c(=O)c2ccccc2n(CC(=O)c2ccc3c(c2)OCCO3)c1=O`, `O=C(Nc1nc(-c2ccc3c(c2)OCCO3)cs1)c1ccc2c(c1)OCO2` is lower in cell viability: 99.8% for the first, 94.1% for the second.

Compared with `O=C(C1CC1(c1ccccc1)c1ccccc1)N1CCc2ccccc2C1` (stereo not drawn), `O=C(c1cc(Cl)ccc1Cl)N1CCc2ccccc2C1` is lower in cell viability: 95.7% for the first, 93.9% for the second.

Going from `NC(Cc1ccc2nsnc2c1)C(=O)O` (stereo not drawn) to `O=C(O)/C=C/c1ccc2c(c1)NC(=O)CO2`, the cell viability falls from 100% to 95.1%.

Compared with `O=c1oc2cc(OCc3ccccc3)c(Cl)cc2c2c1CCCC2`, `O=c1oc2cc(O)ccc2c(-c2ccccc2)c1-c1cccc(Cl)c1` is higher in cell viability: 96.4% for the first, 97.6% for the second.

Going from `O=C(Cn1c(=O)cc(C(=O)N2CCCC2)c2ccccc21)Nc1cccc(Cl)c1` to `CNC(=O)c1cc(=O)n(CC(=O)Nc2ccc(C)c(F)c2)c2ccccc12`, the cell viability rises from 88% to 104%.

Compared with `CCOC(=O)CCc1ccc2c(c1)NC(=O)CC2`, `CCOC(=O)CCC(=O)Nc1cccc(C(C)=O)c1` is higher in cell viability: 91.8% for the first, 104% for the second.

First: C#C[C@]1(O)CC[C@H]2[C@@H]3CCc4cc(O)ccc4[C@H]3CC[C@@]21C
Second: CC(C)C1=CC2=CCC3C(C)(C(=O)NCCNC(=O)C4(C)CCCC5(C)C6CCC(C(C)C)=CC6=CCC45)CCCC3(C)C2CC1 (stereo not drawn)
The cell viability of the first is lower: 92.9% for the first, 105% for the second.

First: COc1c2c(c(CSc3nnnn3-c3ccccc3)c(OC)c1OC)C(=O)OC2
Second: COc1cc(-c2nnc(CSc3nnc(-c4ccco4)n3-c3ccccc3)o2)cc(OC)c1OC
The cell viability of the first is higher: 109% for the first, 108% for the second.

Compared with `COc1ccc(/C=C/C(=O)O)cc1S(=O)(=O)NCCCO`, `CSCCC(NS(=O)(=O)c1ccc(C)cc1)C(=O)O` (stereo not drawn) is higher in cell viability: 99.9% for the first, 102% for the second.

Compared with `NC1=C(c2c[nH]c3ccccc23)C(=O)NC1=O`, `Cn1c(=O)cc(/C=N/O)c2ccccc21` is lower in cell viability: 102% for the first, 90.4% for the second.

Compared with `O=C(O)c1[nH]c(=O)[nH]c(=O)c1CN1CCC(Cc2ccccc2)CC1`, `CC(Nc1n[nH]c(=O)[nH]c1=O)C(=O)N/N=C/c1ccccc1` (stereo not drawn) is lower in cell viability: 107% for the first, 98.2% for the second.

Going from `COC(=O)COc1cc(C)c2c(c1)OC1(CC2c2ccccc2)CC(C)(C)NC(=O)N1` (stereo not drawn) to `COc1cc(C2=NOC(C(=O)N(C)c3ccccc3)C2)cc(OC)c1OC` (stereo not drawn), the cell viability rises from 95.9% to 98.8%.

Going from `COc1ccc(C2CC(=O)C3=C(C2)Nc2ccccc2NC3c2c(F)cccc2Cl)cc1` (stereo not drawn) to `O=C(/C=C/c1ccccc1Cl)Oc1ccc(C=Nc2ccc(F)cc2)cc1`, the cell viability rises from 99.1% to 104%.

First: CCN1Cc2ccccc2CC1C(=O)O (stereo not drawn)
Second: CS(=O)(=O)c1ccc2nc(NC(=O)CN3CCc4ccccc4C3)sc2c1
The cell viability of the first is higher: 107% for the first, 101% for the second.

Going from `COCCOC(=O)c1c(C)n(CCOC23CC4CC(CC(C4)C2)C3)c2c1cc(O)c1ccccc12` to `COC(=O)c1ccc(C(=O)NCCc2c(C)[nH]c3ccc(OC)cc23)cc1`, the cell viability rises from 81.2% to 111%.

Going from `Cc1nn(CC(=O)NCCc2c(C)[nH]c3ccc(OCc4ccccc4)cc23)c(C)c1Cl` to `Cc1cc(Oc2cc(C)c(Cl)c(C)c2)nc(SCC(=O)c2ccccc2)n1`, the cell viability rises from 95.2% to 98.7%.

First: COc1ccc(C(=O)N2CCN(c3ccccc3)CC2)cc1OC
Second: COc1cc(C(=O)CN(Cc2ccccc2)Cc2ccccc2)ccc1O
The cell viability of the first is higher: 111% for the first, 90.2% for the second.

First: CCC(Sc1nc2c(=O)[nH]cnc2n1C)C(=O)Nc1ccc(C(C)C)cc1 (stereo not drawn)
Second: CSc1cccc(NC(=O)CSc2nc3c(=O)[nH]cnc3n2C)c1
The cell viability of the first is higher: 100% for the first, 98% for the second.

Compared with `CCCOc1ccc(NCCC(=O)c2cc3ccccc3oc2=O)cc1`, `COc1cc(C(=O)CCNc2ccc(F)c(Cl)c2)cc(OC)c1OC` is lower in cell viability: 106% for the first, 84.7% for the second.

Going from `O=C(NCCSCc1ccc(Cl)cc1)c1ccc(CN2CCc3ccccc3C2)cc1` to `Cc1ccc(-n2c(SCc3cccc(F)c3)nc3c(=O)[nH]cnc32)cc1`, the cell viability falls from 108% to 104%.

Compared with `Cn1c(=O)c2c(ncn2CC(O)CN=CN2CCOCC2)n(C)c1=O` (stereo not drawn), `CCCC(=O)NC1C(=O)N2C(C(=O)O)=C(COC(C)=O)CSC12` (stereo not drawn) is higher in cell viability: 99.3% for the first, 106% for the second.

Compared with `O=C(/C=C/c1ccc(Cl)cc1)N1CCCCC1`, `O=C1ON=C(c2ccccc2)/C1=C/c1ccc2c(c1)OCO2` is lower in cell viability: 104% for the first, 101% for the second.

First: N#CC1=C(N)Oc2c(oc(CO)cc2=O)C1c1ccccc1[N+](=O)[O-] (stereo not drawn)
Second: Nc1nc2c(c(=O)[nH]1)NC(NCCc1ccccc1)N2C1OC(CO)C(O)C1O (stereo not drawn)
The cell viability of the first is higher: 100% for the first, 97.3% for the second.

First: C=CCNC(=O)C(O)C(O)C(=O)NCC=C (stereo not drawn)
Second: O=C(O)C(O)C(O)C(O[C@@H]1O[C@H](CO)[C@H](O)[C@H](O)[C@H]1O)C(O)CO (stereo partly drawn)
The cell viability of the first is lower: 101% for the first, 114% for the second.

Compared with `CC(C)(C)OC(=O)N[C@@H](Cc1ccc(OC(C)(C)C)cc1)C(=O)O`, `COc1cc(C(=O)Oc2c(Br)cc(Br)cc2/C=N\NC(=O)c2ccc(C)nc2)cc(OC)c1OC` is lower in cell viability: 91.3% for the first, 82.8% for the second.

Compared with `Cc1cc2c(C(C)C)c(O)c(O)c(/C=N/NC(N)=S)c2c(O)c1-c1c(O)cc2c(/C=N/NC(N)=S)c(O)c(O)c(C(C)C)c2c1C`, `COc1cc(-c2cc(-c3ccc(C)cc3)c(C#N)c(=O)[nH]2)cc(OC)c1OC` is lower in cell viability: 110% for the first, 109% for the second.

For `CC(C)S[C@@H]1O[C@H](CO)[C@H](O)[C@H](O)[C@H]1O`, the cell viability was 102%.
